Measured values published in publication PMC2659801.
No constants are given. Whether binding was seen depends on the method and setting. In cells and extracts the contact can be indirect. Some results given as binding are weak or reduced against the parent protein; the word gives no strength. Tags and fused reporters may be left off the sequences shown.

Sequences of proteins named here, by UniProt entry; tags and fusion partners are left off.
UniProt Q99496: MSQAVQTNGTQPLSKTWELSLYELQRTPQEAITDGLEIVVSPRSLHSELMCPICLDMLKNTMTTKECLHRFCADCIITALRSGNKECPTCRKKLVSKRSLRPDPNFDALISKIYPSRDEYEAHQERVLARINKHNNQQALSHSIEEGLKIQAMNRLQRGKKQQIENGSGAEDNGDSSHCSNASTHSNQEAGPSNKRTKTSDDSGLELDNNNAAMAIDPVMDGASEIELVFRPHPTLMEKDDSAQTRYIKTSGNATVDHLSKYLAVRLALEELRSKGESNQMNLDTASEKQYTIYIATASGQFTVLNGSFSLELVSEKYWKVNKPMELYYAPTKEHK

Biological target: T1, GST-Bmi1 (UniProt P25916)
T1 sequence: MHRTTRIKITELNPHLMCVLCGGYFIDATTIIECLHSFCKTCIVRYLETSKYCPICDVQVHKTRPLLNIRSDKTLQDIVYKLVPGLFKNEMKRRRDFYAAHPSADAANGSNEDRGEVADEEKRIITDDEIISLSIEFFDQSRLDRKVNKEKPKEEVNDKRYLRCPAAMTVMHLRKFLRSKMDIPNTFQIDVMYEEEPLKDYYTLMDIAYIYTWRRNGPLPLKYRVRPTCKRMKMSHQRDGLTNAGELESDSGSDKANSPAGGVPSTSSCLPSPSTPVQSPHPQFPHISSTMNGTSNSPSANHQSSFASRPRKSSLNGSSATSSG
Test: pull-down; GST-fused proteins on beads, S35-methionine-labelled in vitro translated protein; binding buffer 20 mM Tris pH 8.0, 100 mM NaCl, 0.1% NP-40, 1 mM DTT, 1 hr at 4°C; 3 washes; autoradiography; only the target purified

- binding: binds
Substance: in vitro-translated (IVT) Ring1B (from UniProt Q99496 1-336)
